PubChem BioAssay AID1224830 | NIAID, 2016
Shown is a random part of about 18,000 reagents tested. About 2,900 of all reagents (16%) count as active. 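Calls are made per well; low scores hint the gene aids the LPS response, high scores that it dampens it.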 Repeated entries: four replicate wells of each siRNA pool.

Screen: 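Host factors that control LPS-induced TNF expression in human macrophages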 (primary screen)
Cells: human THP-1 monocytic leukaemia cells, TNF dual-luciferase reporter clone, PMA-differentiated to macrophage-like cells
Reagent: siRNA pool against human genes, 50 nM
Time to read-out: LPS for 4 h, given about 3 days after siRNA transfection
Treatment: bacterial LPS (TLR4 ligand), 10 ng/ml
Read-out: 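Ratio of firefly to renilla light, scaled to the plate median and expressed as a robust z-score per replicate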
Direction: TNF reporter robust z-score: higher = stronger TNF reporter response to LPS
Hit rule: 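a well is active when its z-score exceeds 2.8 or falls below -1.5; control wells carry no call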

After knock-down of GPR26, the screen gave TNF reporter robust z-score 0.55; inactive.
With knock-down of GPR26 the results were TNF reporter robust z-score 0.29; inactive.
With knock-down of GPR26, the screen gave TNF reporter robust z-score 1.61; inactive.
For GPR26, the values are TNF reporter robust z-score 0.66; inactive.
Silencing of CLUL1 gave: TNF reporter robust z-score 5.48; active.
CLUL1 scored TNF reporter robust z-score 0.01; inactive.
For CLUL1, the values are TNF reporter robust z-score 0.94; inactive.
With knock-down of CLUL1, the record shows TNF reporter robust z-score 1.5; inactive.
Against WLS, the entry reads TNF reporter robust z-score -0.55; inactive.
Against WLS, the entry reads TNF reporter robust z-score 0.05; inactive.
WLS scored TNF reporter robust z-score -0.27; inactive.
Against WLS, the values are TNF reporter robust z-score 0.57; inactive.
PAH scored TNF reporter robust z-score -0.1; inactive.
After knock-down of PAH, the record shows TNF reporter robust z-score -0.47; inactive.
PAH gave TNF reporter robust z-score -0.46; inactive.
Depletion of PAH resulted in: TNF reporter robust z-score 0.19; inactive.
For ARL14, the values are TNF reporter robust z-score -1.2; inactive.
Knock-down of ARL14 resulted in: TNF reporter robust z-score -0.8; inactive.
Against ARL14 the deposit lists TNF reporter robust z-score -0.91; inactive.
After knock-down of SP2 the results were TNF reporter robust z-score 0.09; inactive.
Against SP2, the entry reads TNF reporter robust z-score 0.53; inactive.
SP2 gave TNF reporter robust z-score 0.16; inactive.
Depletion of SP2 came out at: TNF reporter robust z-score 0.32; inactive.
After knock-down of PXMP4 the results were TNF reporter robust z-score 1.84; inactive.
After knock-down of PXMP4 the results were TNF reporter robust z-score 1.11; inactive.
Silencing of PXMP4 resulted in: TNF reporter robust z-score 0.01; inactive.
With knock-down of PXMP4, the record shows TNF reporter robust z-score -0.23; inactive.
FZD8 scored TNF reporter robust z-score 1.1; inactive.
For FZD8, the values are TNF reporter robust z-score -0.35; inactive.
FZD8 showed TNF reporter robust z-score 1.14; inactive.
For FZD8 the deposit lists TNF reporter robust z-score -0.48; inactive.
Against IPO9, the entry reads TNF reporter robust z-score -0.13; inactive.
IPO9 showed TNF reporter robust z-score -0.69; inactive.
Knock-down of IPO9 came out at: TNF reporter robust z-score 0.27; inactive.
Knock-down of IPO9 came out at: TNF reporter robust z-score -0.18; inactive.

Called active, of those listed so far:
CLUL1 — TNF reporter robust z-score: 5.48; activity call: active
